These are yes or no findings as the source states them, for the method shown. Binding calls can cover weak binding; strength is not graded here.
How the values were obtained:
[1] = biological target: cynomolgus monkey B7-H3 (cynomolgus monkey); experiment: summary of Example 9
[2] = biological target: cynomolgus monkey B7-H3 (cynomolgus monkey); experiment: Cyno B7-H3 Binding grade
[3] = biological target: cynomolgus monkey B7-H3 (cynomolgus monkey); experiment: Cyno Cross-Reactivity
[4] = biological target: cynomolgus monkey B7-H3 (cynomolgus monkey); experiment: summary of activities
[5] = biological target: cynomolgus monkey B7-H3 (cynomolgus monkey); experiment: summary of panel
[6] = biological target: cynomolgus monkey B7-H3 (cynomolgus monkey); experiment: Cynomolgus B7-H3 Binding grade
[7] = biological target: cynomolgus monkey B7-H3 (cynomolgus monkey); experiment: IHC on cynomolgus tissues

binding [1] | binding [2] | binding [3] | binding [4] | binding [5] | binding [6] | binding [7] | Binder
binds | binds | binds | binds | binds | binds | binds | BRCA69D (antibody, IgG1, V domains shown) VH: QVQLQQSGAELARPGASVKLSCKASGYTFTSYWMQWVKQRPGQGLEWIGTIYPGDGDTRYTQKFKGKATLTADKSSSTAYMQLSSLASEDSAVYYCARRGIPRLWYFDVWGAGTTVTVSS VL: DIQMTQTTSSLSASLGDRVTISCRASQDISNYLNWYQQKPDGTVKLLIYYTSRLHSGVPSRFSGSGSGTDYSLTIDNLEQEDIATYFCQQGNTLPPTFGGGTKLEIK
binds | binds | binds | binds | binds | binds | binds | PRCA157 (antibody, IgG1, V domains shown, murine mAb, IgG1/k) VH: EVQQVESGGDLVKPGGSLKLSCAASGFTFSSYGMSWVRQTPDKRLEWVATINSGGSNTYYPDSLKGRFTISRDNAKNTLYLQMRSLKSEDTAMYYCARHDGGAMDYWGQGTSVTVSS VL: DIQMTQSPASLSVSVGETVTITCRASESIYSYLAWYQQKQGKSPQLLVYNTKTLPEGVPSRFSGSGSGTQFSLKINSLQPEDFGRYYCQHHYGTPPWTFGGGTNLEIK

— US20130149236A1 (MacroGenics, published 2013)
